# According to PubChem BioAssay AID256 (DTP/NCI, 2004):
# The list is a part of this screen's results and no random one: it is rich in T/C values a quarter to a half above the control, in often repeated tests (any T/C) and in doses without a T/C. Further doses and runs are listed elsewhere. T/C gives the treated animals as a percentage of the vehicle group. Some doses have a count of surviving animals in place of a T/C: the source files T/C as zero there, which appears to mark a toxic dose or a test without result, not a measured value. Some doses without a T/C left all or most animals alive at the check, yet need not have been tolerated: the source hardly ever lists a survival T/C far under the control, and the zero likely stands for such cases as well. Survivors were counted at the toxicity check, usually on the fifth day, unless a day is given; later deaths do not show. Schedules are NCI's codes, read here as Q, the interval in days (D) or hours (H), X, the number of doses. Some entries hold several experiments; the values are given in rising order. For survival time, the PubChem record calls one and a half times the control and up active, and a quarter to a half above the control has no call in these data; cut-offs in other NCI protocols can differ. Some T/C values carry the count of animals alive at the toxicity check (mostly the fifth day); where none is given, no animal had died by that day.
# System: CD2F1 mice, L1210 leukemia ip, survival T/C
# Experiment: NCI In Vivo Anticancer Drug Screen. Data for tumor model L1210 Leukemia (intraperitoneal) in CD2F1 (CDF1) mice
# Details: T/C endpoint: mean survival time, higher T/C = longer survival
# Procedure, shortened: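 Antitumor effect is scored in animals hosting a serially transplanted tumor. Values compare compound-dosed animals against vehicle-only controls as a simple quotient.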
# [1] = dose: 400.0 mg/kg/injection, schedule: Q04DX003 (ip), vehicle: saline with Tween-80
structure (smiles),measurement,setting,value
CCOC(=O)/C(C)=N\NC(=O)C(C)SC(C)C(=O)N/N=C(\C)C(=O)OCC (stereo unspecified),survivor count,"dose: 100.0 mg/kg/injection, schedule: Q04DX002 (ip), vehicle: Klucel (hydroxypropylcellulose) (HPC)",0 of 3
same,survivor count,"dose: 200.0 mg/kg/injection, schedule: Q04DX002 (ip), vehicle: Klucel (hydroxypropylcellulose) (HPC)",0 of 3
same,survivor count,"dose: 400.0 mg/kg/injection, schedule: Q04DX002 (ip), vehicle: Klucel (hydroxypropylcellulose) (HPC)",0 of 3
COc1cccnc1/C=N/NC(N)=S,T/C,"dose: 5.54 mg/kg/injection, schedule: Q01DX009 (ip), vehicle: saline with Tween-80",136 % of control
same,T/C,"dose: 6.25 mg/kg/injection, schedule: Q01DX009 (ip), vehicle: saline with Tween-80",134 % of control
same,T/C,"dose: 8.32 mg/kg/injection, schedule: Q01DX009 (ip), vehicle: saline with Tween-80",130 % of control
same,T/C,"dose: 12.5 mg/kg/injection, schedule: Q01DX009 (ip), vehicle: saline with Tween-80",140 % of control [5 of 6 alive]
same,T/C,"dose: 18.8 mg/kg/injection, schedule: Q01DX009 (ip), vehicle: saline with Tween-80",126 [7 of 10 alive] and 129 % of control [9 of 10 alive]
same,survivor count,"dose: 25.0 mg/kg/injection, schedule: Q01DX009 (ip), vehicle: saline with Tween-80",6 of 6
same,survivor count,"dose: 25.0 mg/kg/injection, schedule: Q04DX002 (ip), vehicle: saline with Tween-80",0 of 3
same,survivor count,"dose: 28.1 mg/kg/injection, schedule: Q01DX001 (ip), vehicle: saline with Tween-80",4 of 10
same,survivor count,"dose: 28.1 mg/kg/injection, schedule: Q01DX009 (ip), vehicle: saline with Tween-80",0 of 10
same,survivor count,"dose: 28.1 mg/kg/injection, schedule: Q04DX001 (ip), vehicle: saline with Tween-80",9 of 10
O=C(Nc1ccccc1C(F)(F)F)OCCOc1ccccc1Cl,survivor count,"dose: 200.0 mg/kg/injection, schedule: Q01DX009 (ip), vehicle: Klucel (hydroxypropylcellulose) (HPC)",3 of 3
S=C(Nc1ccccc1)N1CCC(CCCC2CCN(C(=S)Nc3ccccc3)CC2)CC1,survivor count,[1],6 of 6
COc1cc([N+](=O)[O-])c2nc(/C=N/NC(N)=S)ccc2c1,survivor count,"dose: 200.0 mg/kg/injection, schedule: Q01DX001 (ip), vehicle: saline",6 of 6
same,survivor count,"dose: 400.0 mg/kg/injection, schedule: Q01DX001 (ip), vehicle: saline",6 of 6
C=CS(=O)(=O)c1ccc([N+](=O)[O-])cc1,survivor count,"dose: 12.5 mg/kg/injection, schedule: Q04DX002 (ip), vehicle: saline with Tween-80",3 of 3
same,survivor count,"dose: 50.0 mg/kg/injection, schedule: Q04DX002 (ip), vehicle: saline with Tween-80",3 of 3
O=c1[nH]c(=O)n(CCCO)cc1F,T/C,"dose: 100.0 mg/kg/injection, schedule: Q01DX005 (ip), vehicle: water",132 and 146 % of control
same,survivor count,"dose: 200.0 mg/kg/injection, schedule: Q01DX005 (ip), vehicle: water",4 of 6
same,survivor count,"dose: 400.0 mg/kg/injection, schedule: Q01DX005 (ip), vehicle: water",0 of 6
CCN(CC)CC(COC)Oc1cc(C)ccc1C(C)C (stereo unspecified),survivor count,"dose: 400.0 mg/kg/injection, schedule: Q04DX003 (ip), vehicle: Klucel (hydroxypropylcellulose) (HPC)",6 of 6
CC(=O)c1cc2c(cc1C(C)C)CC[C@H]1[C@](C)(C#N)CCC[C@]21C,survivor count,"dose: 200.0 mg/kg/injection, schedule: Q04DX003 (ip), vehicle: saline with Tween-80",6 of 6
same,survivor count,[1],6 of 6
c1cc(-c2cc3ccc(C4=NCCN4)cc3[nH]2)ccc1C1=NCCN1,T/C,"dose: 6.25 mg/kg/injection, schedule: Q01DX009 (ip), vehicle: suspension in saline",125 and 140 % of control
same,T/C,"dose: 12.5 mg/kg/injection, schedule: Q01DX009 (ip), vehicle: suspension in saline",134 and 139 % of control
same,survivor count,"dose: 50.0 mg/kg/injection, schedule: Q01DX009 (ip), vehicle: suspension in saline","0 of 6, 4 of 6, 5 of 6"
same,survivor count,"dose: 100.0 mg/kg/injection, schedule: Q01DX009 (ip), vehicle: saline",0 of 6
same,survivor count,"dose: 100.0 mg/kg/injection, schedule: Q01DX009 (ip), vehicle: suspension in saline",0 of 6
O=[N+]([O-])c1ccc(C[N+]23CCN(CC2)CC3)cc1,survivor count,"dose: 400.0 mg/kg/injection, schedule: Q01DX001 (ip), vehicle: saline with Tween-80",3 of 6
